The record followed here is paper PMC3775723.

No constants are given. Whether binding was seen depends on the method and setting. Binding seen in cells or lysates may run through a third protein. Tags and fused reporters may be left off the sequences shown.

In the experiment the target is T1, Flag-Ago (Archipelago), transfected S2 cells (Drosophila) (UniProt Q9VZF4).
T1 sequence: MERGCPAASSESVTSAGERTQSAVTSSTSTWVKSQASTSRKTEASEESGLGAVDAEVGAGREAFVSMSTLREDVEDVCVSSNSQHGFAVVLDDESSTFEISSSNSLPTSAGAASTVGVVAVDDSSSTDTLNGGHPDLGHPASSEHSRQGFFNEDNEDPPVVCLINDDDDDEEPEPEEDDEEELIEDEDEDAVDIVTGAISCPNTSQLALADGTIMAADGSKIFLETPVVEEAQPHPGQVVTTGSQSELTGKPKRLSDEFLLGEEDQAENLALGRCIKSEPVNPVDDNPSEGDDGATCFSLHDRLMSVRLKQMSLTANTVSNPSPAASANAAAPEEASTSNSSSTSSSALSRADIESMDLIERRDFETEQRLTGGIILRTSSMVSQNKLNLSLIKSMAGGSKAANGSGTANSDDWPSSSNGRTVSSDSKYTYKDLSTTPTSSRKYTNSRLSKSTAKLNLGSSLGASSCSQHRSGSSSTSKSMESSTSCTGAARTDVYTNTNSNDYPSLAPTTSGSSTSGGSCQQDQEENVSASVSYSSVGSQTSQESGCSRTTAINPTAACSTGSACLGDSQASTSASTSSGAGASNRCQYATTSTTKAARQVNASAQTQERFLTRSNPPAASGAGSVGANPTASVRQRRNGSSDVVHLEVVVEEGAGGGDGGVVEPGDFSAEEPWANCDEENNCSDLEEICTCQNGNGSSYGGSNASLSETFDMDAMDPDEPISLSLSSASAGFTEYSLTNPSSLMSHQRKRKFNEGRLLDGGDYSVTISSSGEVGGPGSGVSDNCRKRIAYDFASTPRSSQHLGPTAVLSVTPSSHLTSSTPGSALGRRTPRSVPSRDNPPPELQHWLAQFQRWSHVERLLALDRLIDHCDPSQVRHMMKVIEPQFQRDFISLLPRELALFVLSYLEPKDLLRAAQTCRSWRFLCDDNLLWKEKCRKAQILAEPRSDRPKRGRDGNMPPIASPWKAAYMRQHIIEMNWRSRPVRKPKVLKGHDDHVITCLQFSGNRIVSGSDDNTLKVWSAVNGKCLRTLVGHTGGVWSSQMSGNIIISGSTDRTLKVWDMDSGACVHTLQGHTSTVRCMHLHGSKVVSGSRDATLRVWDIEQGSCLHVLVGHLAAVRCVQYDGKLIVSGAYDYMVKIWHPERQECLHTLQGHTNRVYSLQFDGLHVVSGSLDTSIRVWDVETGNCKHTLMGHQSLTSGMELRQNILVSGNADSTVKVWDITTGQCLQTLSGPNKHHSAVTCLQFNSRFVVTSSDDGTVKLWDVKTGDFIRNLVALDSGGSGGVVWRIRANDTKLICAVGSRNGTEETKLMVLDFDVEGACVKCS
In words: co-IP; S2 cells co-transfected with tagged Akt (Myc or Flag) and a tagged F-box protein (Flag-Slimb, Myc-Slimb^ΔWD40 or Flag-Ago); lysate immunoprecipitated, protein A/G beads, Western blot. For orientation: In western blotting, separated proteins are transferred to a membrane and probed.

B1: Myc-Akt, transfected S2 cells (protein, UniProt Q8INB9 1-611)
chain: MNYLPFVLQRRSTVVASAPAPGSASRIPESPTTTGSNIINIIYSQSTHPNSSPTSGSAEKFSWQQSWPSRTSAAPTHDSGTMSINTTFDLSSPSVTSGHALTEQTQVVKEGWLMKRGEHIKNWRQRYFVLHSDGRLMGYRSKPADSASTPSDFLLNNFTVRGCQIMTVDRPKPFTFIIRGLQWTTVIERTFAVESELERQQWTEAIRNVSSRLIDVGEVAMTPSEQTDMTDVDMATIAEDELSEQFSVQGTTCNSSGVKKVTLENFEFLKVLGKGTFGKVILCREKATAKLYAIKILKKEVIIQKDEVAHTLTESRVLKSTNHPFLISLKYSFQTNDRLCFVMQYVNGGELFWHLSHERIFTEDRTRFYGAEIISALGYLHSQGIIYRDLKLENLLLDKDGHIKVADFGLCKEDITYGRTTKTFCGTPEYLAPEVLDDNDYGQAVDWWGTGVVMYEMICGRLPFYNRDHDVLFTLILVEEVKFPRNITDEAKNLLAGLLAKDPKKRLGGGKDDVKEIQAHPFFASINWTDLVLKKIPPPFKPQVTSDTDTRYFDKEFTGESVELTPPDPTGPLGSIAEEPLFPQFSYQGDMASTLGTSSHISTSTSLASMQ
As for B1, the binding result is “no binding”.
